Source: PubChem BioAssay AID2685 (National Center for Advancing Translational Sciences (NCATS), 2010)
The other results are listed elsewhere or left out. These are further read-outs of the screen, such as a control signal, another cell line or another target. No call is given for them. The list favours compounds with an active or inconclusive main result. Potencies come from curve fits of mixed quality, noted in brackets.

Experiment: qHTS Assay for Lipid Storage Modulators in Drosophila S3 Cells;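 as to cell number change: cells counted by Cell Tracker Red CMTPX staining in the red channel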
Conditions: BODIPY lipid droplet fluorescence, 18-24 h; for cell number change: measured here: cell count max response, cells fed with added oleic acid
Summary of the method: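 Drosophila S3 cells loaded with oleic acid (400 uM, as added) and compounds at several concentrations; lipid droplets imaged by 488-nm laser-scanning cytometry, 500–530 nm intensity and object ratio to cell channel. Percent activity normalized to 20 uM Triacsin C.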

[1] = measured here: cell number channel AC50, cells fed with added oleic acid
[2] = measured here: lipid fluorescence (Fed channel) AC50, cells fed with added oleic acid

SMILES	cell number change	AC50 [1]	AC50 [2]
Cc1ccnc2nc(C(=O)OCCOc3ccc(F)cc3)nn12	36%	2.31 µM [falling, partial curve, poor fit]	0.82 µM [falling, partial curve, poor fit]
COc1ccc(NC(=O)c2ccccc2Sc2ccc(NC(C)=O)nc2)cc1	65.2%	16.4 µM [rising, single point]	23.1 µM [rising, single point]
COc1ccc(NC(=O)C(NC(=O)CNC(C)=O)c2ccc(C)cc2)cc1 (centres undefined)	-20.2%	–	–
CCCCN1C(=O)C(O)=C(C(C)=O)C1c1ccccc1[N+](=O)[O-] (centres undefined)	59.7%	–	29.1 µM [rising, partial curve, poor fit]
CS(=O)(=O)Nc1ccc(C(=O)Nc2ccccc2C(=O)N2CCCC2)cc1	-77%	25.9 µM [falling, partial curve]	16.4 µM [falling, partial curve]
N#C/C(=C\c1cccnc1)C(=O)Nc1ccc(C(=O)O)cc1	-6.51%	–	–
CC1=C(C#N)C(=O)NC(C)(C)C1	-8.12%	–	–
CC(NC(=S)NC1CCCCC1)c1ccc(C(C)(C)C)cc1 (centres undefined)	–	–	20.6 µM [falling, single point]
CCc1ccc(NC(=S)N2CCC(NC(=O)C3CCCCC3)CC2)cc1	-24.8%	–	29.1 µM [falling, partial curve, poor fit]
CCOC(=O)n1c(=O)n(Cc2cccc(C)c2)c2ccccc21	-4.07%	–	32.6 µM [rising, single point]
CSc1nnc(C2CCCN2)n1C (centres undefined)	-11.3%	3.66 µM [falling, single point]	2.06 µM [falling, full curve]
CN(CCC#N)C(=O)c1cc2c(Cl)nc3ccccc3c2s1	20.4%	–	5.8 µM [rising, full curve, poor fit]
COc1ccc(N(Cc2cc3ccccc3[nH]c2=O)S(=O)(=O)c2ccccc2)cc1	8.86%	–	–
Cc1ccc(-n2c(O)c(C=NCc3ccccn3)c3ccccc3c2=O)cc1	33.8%	6.51 µM [rising, partial curve]	20.6 µM [rising, single point]
COC(=O)C1C(O)C(C)C(O)C(C)(O)/C=C\C=C(/C)C(=O)Nc2c(C)c(OC(C)=O)c3c(c2O)C(=O)C(C)=C2OCOC(=C23)/C(C)=C/C(C)(O)C(O)C(C)C1O (centres undefined)	146%	11.6 µM [rising, partial curve]	–
CC(C)(C)[C@@H]1CCC(=O)N(CC[C@H](Sc2ccccc2)c2ccccc2)CC1	7.19%	–	–
O=CN1CCN(C(=O)Cc2ccc([N+](=O)[O-])cc2)CC1	6.32%	–	29.1 µM [rising, single point]
CN(CC(=O)NC1CCCc2ccccc21)S(=O)(=O)c1cccs1 (centres undefined)	33.4%	32.6 µM [rising, single point]	–
CC(C(=O)NCC1CCCCC1)N(C)Cc1ccc(Br)cc1 (centres undefined)	40.7%	0.00731 µM [rising, full curve, poor fit]	–
COc1ccc(C(=O)Nc2cc(C)nc3ccccc23)cc1OC	83.7%	11.6 µM [rising, partial curve, poor fit]	1.84 µM [rising, partial curve]
NC(=O)NC(=O)CSc1nnc(-c2ccc(Cl)cc2)n1CC1CCCO1 (centres undefined)	8.14%	–	–

SMILES	cell number change	AC50 [1]	AC50 [2]
CN1CCN(C(=O)C2CCN(S(=O)(=O)c3ccc(F)cc3)CC2)CC1	20.2%	–	29.1 µM [falling, single point]
Cc1cccc(Nc2nc(N)c([N+](=O)[O-])c(NCc3ccco3)n2)c1	20.4%	–	23.1 µM [rising, single point]
CCN(Cc1ccncc1)C(=O)CCc1ccccc1	-7.69%	–	–
CCc1cccc(C)c1NC(=S)NCc1ccccc1	70.3%	29.1 µM [rising, single point]	23.1 µM [falling, partial curve, poor fit]
O=c1c2ccccc2c2c(O)nc(-c3ccccc3)n2n1Cc1ccccc1	10.2%	–	29.1 µM [falling, single point]
Cc1ccc(N/N=C2\CS(=O)(=O)N(C)c3ccsc32)cc1	-104%	–	–
Cc1ccc(N(CC(=O)NCc2ccco2)C(=O)CCC(=O)Nc2ccccn2)cc1C	0.332%	1.64 µM [rising, partial curve, poor fit]	29.1 µM [rising, single point]
O=C(C[n+]1cc(Br)cc(Br)c1)c1cccc([N+](=O)[O-])c1	-23.4%	–	–
CC1(c2ccc3c(c2)OCO3)NC(=O)N(CC(=O)Nc2ccccc2)C1=O (centres undefined)	117%	18.4 µM [rising, single point]	–
COc1ccc(NC(=O)CNC(c2ccccc2)c2ccccc2)cc1Cl	21.1%	0.731 µM [rising, full curve]	–
O=C(NCc1ccccc1Cl)C(=O)c1cn(CC(=O)N2CCOCC2)c2ccccc12	2.55%	–	0.58 µM [rising, single point]
COc1ccc(C(=O)COC(=O)CCN=C2NS(=O)(=O)c3ccccc32)cc1OC	-50.4%	29.1 µM [falling, single point]	–
CCOC(=O)C(CC)/C(C)=N\NC(=O)c1cccc(C)c1 (centres undefined)	2.17%	–	3.66 µM [falling, single point]
COc1cc(Cl)ccc1OCc1cc(C(=O)N(C)Cc2nnc(C)o2)no1	2.89%	–	–
CC1CC(C)(C)NC(=S)O1 (centres undefined)	0.218%	–	6.51 µM [rising, single point]
COc1ccc(CNC(=O)c2ccc(CNc3c(NC4CCCCC4)c(=O)c3=O)cc2)cc1	-23.1%	–	29.1 µM [rising, single point]
CCN(CC(=O)NCc1cccs1)C(=O)/C=C/c1cccc(Br)c1	31.6%	11.6 µM [rising, single point]	–
CCOC(=O)CCCNC(=O)CCNC(=O)c1ccc(OC)cc1	-26.5%	0.231 µM [falling, full curve]	0.651 µM [falling, full curve]
CCCN1CCN(C(=S)Nc2ccc(S(N)(=O)=O)cc2)CC1	33.7%	29.1 µM [rising, single point]	0.082 µM [rising, partial curve, poor fit]
COc1ccccc1N/C=C/c1onc(C)c1[N+](=O)[O-]	62%	–	29.1 µM [rising, single point]
CN(Cc1ccccc1)C(=O)C1CCN(S(=O)(=O)c2cc([N+](=O)[O-])ccc2Cl)CC1	-14.7%	–	6.51 µM [falling, partial curve]

SMILES	cell number change	AC50 [1]	AC50 [2]
O=C(NCc1ccc2c(c1)OCO2)c1cc(-c2cc(Cl)ccc2O)n[nH]1	6.2%	1.84 µM [falling, partial curve]	2.06 µM [falling, partial curve]
CN(C)S(=O)(=O)c1ccc(Cl)c(C(=O)NC2=NCCS2)c1	9.15%	–	–
O=C(CN1CCN(S(=O)(=O)c2ccc(Br)cc2)CC1)N/N=C/c1cccs1	25.4%	3.26 µM [falling, single point]	4.11 µM [falling, single point]
COc1cc2cc(C(=O)N/N=C/c3cccc(OC)c3OC)[nH]c2cc1OC	-25.5%	–	20.6 µM [falling, single point]
CC(Sc1ccc2ccccc2n1)C(=O)O (centres undefined)	0.919%	–	–
COc1ccc(NC(=O)NNC(=O)COc2ccc3cc(Br)ccc3c2)cc1	-4.95%	1.84 µM [rising, partial curve, poor fit]	10.3 µM [rising, partial curve]
Cc1ccc(Nc2nnns2)cc1C	189%	18.4 µM [rising, single point]	–
CCN(C(=O)COC(=O)CSc1ccc(C)c(C)c1)C1CCS(=O)(=O)C1 (centres undefined)	5.95%	7.31 µM [rising, single point]	6.51 µM [rising, single point]
CC(=O)c1ccc(NC(=O)c2ccc(NC(=O)c3ccco3)cc2)cc1	18.4%	–	29.1 µM [falling, single point]
CCOCCCNC(=O)/C(C#N)=C/c1ccc([N+](=O)[O-])o1	-78.3%	29.1 µM [falling, single point]	–
Cc1ccc(S(=O)(=O)Nc2ncccn2)cc1	-5.96%	–	–
O=[N+]([O-])c1ccc(O)c(N=Cc2sc3ccccc3c2O)c1	2.41%	–	29.1 µM [falling, single point]
CCCC(=O)N(CC(=O)Nc1sc(C)c(C)c1C(N)=O)Cc1ccccc1	–	1.84 µM [rising, partial curve, poor fit]	–
COc1cc(NC(c2ccccc2)c2ccccc2)cc(OC)c1OC	-10.7%	–	0.82 µM [falling, partial curve]
C=CCN(C(=O)CNS(=O)(=O)c1ccccc1)C(C(=O)NCCOC)c1ccncc1 (centres undefined)	16.2%	–	–
CC1(C)Cc2cccc(OCC(=O)Nc3cc(C(F)(F)F)ccc3N3CCOCC3)c2O1	20.9%	0.461 µM [rising, full curve]	–
CC(=O)c1cccc(NC(=S)N2CCCC2)c1	-11.9%	–	29.1 µM [falling, single point]
CC1CCCN(C(=O)CSc2nnc(-c3ccc(O)cc3)o2)C1 (centres undefined)	-13.2%	–	–
C=CCn1c(O)c(C2=c3ccccc3=NC2=O)s/c1=N/c1nccs1	9.75%	–	0.0731 µM [rising, full curve, poor fit]
